Results deposited as PubChem BioAssay AID1259405 (NCATS, 2018)
Purpose: 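Silenced genes that increase secreted GFP made by CHO cells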 (primary screen). System: Chinese hamster CHO-K1 ovary cells with stable secreted eGFP expression. Reagent: single siRNA against mouse genes, 0.8 pmol siRNA per well (2 µl of 400 nM stock). Timing: 3 days. Detection: 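Per-well intracellular GFP measured by laser scanning cytometry, plus viability from ATP luminescence, each relative to plate median of non-targeting control wells, in %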. Scale: GFP, % of control: higher = more GFP per well, higher productivity; viability (ATP), % of control: higher = more viable cells (more ATP). Call rule: 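a knock-down is called active if GFP reaches 120% or more of non-targeting control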.
The deposit covers about 50,000 reagents; this is a random part of them. Over the whole deposit, about 4,000 (8%) got an active call. 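Mouse siRNA library applied to hamster cells; one well for each siRNA.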 The numbers tell different reagents against one gene apart.

Ryr2 #1 — GFP, % of control: 92.1; viability (ATP), % of control: 89.4; outcome: inactive
Ryr2 #2 — GFP, % of control: 48.3; viability (ATP), % of control: 51.3; outcome: inactive
Ryr2 #3 — GFP, % of control: 89.9; viability (ATP), % of control: 75.9; outcome: inactive
Slc8a3 #1 — GFP, % of control: 72.4; viability (ATP), % of control: 90.9; outcome: inactive
Slc8a3 #2 — GFP, % of control: 114; viability (ATP), % of control: 73.3; outcome: inactive
Slc8a3 #3 — GFP, % of control: 93; viability (ATP), % of control: 68.4; outcome: inactive

Targets listed so far whose target name starts with S or s (3):
Slc8a3 #1 — GFP, % of control: 72.4; viability (ATP), % of control: 90.9; outcome: inactive
Slc8a3 #2 — GFP, % of control: 114; viability (ATP), % of control: 73.3; outcome: inactive
Slc8a3 #3 — GFP, % of control: 93; viability (ATP), % of control: 68.4; outcome: inactive

Additional records:
Hoxd13 #1 — GFP, % of control: 78.2; viability (ATP), % of control: 123; outcome: inactive
Hoxd13 #2 — GFP, % of control: 129; viability (ATP), % of control: 129; outcome: active
Hoxd13 #3 — GFP, % of control: 111; viability (ATP), % of control: 78.2; outcome: inactive
Sprr2g #1 — GFP, % of control: 83.3; viability (ATP), % of control: 89.8; outcome: inactive
Sprr2g #2 — GFP, % of control: 159; viability (ATP), % of control: 149; outcome: active
Sprr2g #3 — GFP, % of control: 115; viability (ATP), % of control: 135; outcome: inactive
Slc45a1 #1 — GFP, % of control: 49.1; viability (ATP), % of control: 86.6; outcome: inactive
Slc45a1 #2 — GFP, % of control: 74.9; viability (ATP), % of control: 94.5; outcome: inactive
Slc45a1 #3 — GFP, % of control: 90.5; viability (ATP), % of control: 65.1; outcome: inactive
Tuba8 #1 — GFP, % of control: 75.1; viability (ATP), % of control: 106; outcome: inactive
Tuba8 #2 — GFP, % of control: 40; viability (ATP), % of control: 58.1; outcome: inactive
